Reference: the supplement of paper PMC4604168 (melanoma cell lines)
Some of the results follow. Repeats are few or missing, and single values can be far off.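 Imaging used 1,536-well plates; nuclei positive for cleaved PARP by antibody were divided by total DNA-stained nuclei to yield the apoptosis fraction. Doses for screening kept most cells viable, and cell lines differ markedly in resting and induced cleaved-PARP levels.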

What was measured:
Test in all cases: cleaved PARP positive nuclei fraction relative to DMSO control; melanoma cells; higher = more apoptosis
Conditions in all cases: library dose: low library concentration; 72 h
501Mel = test system: 501Mel
A101D = test system: A101D
A2058 = test system: A2058
A375 = test system: A375
C32 = test system: C32
CBRC008 = test system: CBRC008 (line from a melanoma biopsy)
CBRC013 = test system: CBRC013 (line from a melanoma biopsy)
CBRC014 = test system: CBRC014 (line from a melanoma biopsy)
CBRC016 = test system: CBRC016 (line from a melanoma biopsy)
CBRC017 = test system: CBRC017 (line from a melanoma biopsy)
COLO792 = test system: COLO792
COLO800 = test system: COLO800
COLO829 = test system: COLO829
G361 = test system: G361
IPC-298 = test system: IPC-298
IST-MEL1 = test system: IST-MEL1
LB2518-MEL = test system: LB2518-MEL
LOXIMVI = test system: LOXIMVI
MEL-HO = test system: MEL-HO

Structure (SMILES) | cleaved PARP positive nuclei fraction (501Mel) [%] | cleaved PARP positive nuclei fraction (A101D) [%] | cleaved PARP positive nuclei fraction (A2058) [%] | cleaved PARP positive nuclei fraction (A375) [%] | cleaved PARP positive nuclei fraction (C32) [%] | cleaved PARP positive nuclei fraction (CBRC008) [%] | cleaved PARP positive nuclei fraction (CBRC013) [%] | cleaved PARP positive nuclei fraction (CBRC014) [%] | cleaved PARP positive nuclei fraction (CBRC016) [%] | cleaved PARP positive nuclei fraction (CBRC017) [%] | cleaved PARP positive nuclei fraction (COLO792) [%] | cleaved PARP positive nuclei fraction (COLO800) [%] | cleaved PARP positive nuclei fraction (COLO829) [%] | cleaved PARP positive nuclei fraction (G361) [%] | cleaved PARP positive nuclei fraction (IPC-298) [%] | cleaved PARP positive nuclei fraction (IST-MEL1) [%] | cleaved PARP positive nuclei fraction (LB2518-MEL) [%] | cleaved PARP positive nuclei fraction (LOXIMVI) [%] | cleaved PARP positive nuclei fraction (MEL-HO) [%]
CN(c1ncccc1CNc1nc(Nc2ccc3c(c2)CC(=O)N3)ncc1C(F)(F)F)S(C)(=O)=O + O=C(O)c1ccc(-c2c[nH]c3ncc(-c4ccccc4)cc23)cc1C1CCCC1 [GSK650394] (first compound 0.08 µM, partner dose 0.16 µM) | 41.8 | 227 | 133 | 69 | 262 | 325 | 149 | 28.8 | 106 | 105 | 179 | 48.8 | 96 | 142 | 21.9 | 216 | 49 | 220 | 146
C[C@@H](N)c1ccc(C(=O)Nc2ccnc3[nH]ccc23)cc1 + NCC(=O)Nc1ccc(-n2nc(C(F)(F)F)cc2-c2ccc3c(ccc4ccccc43)c2)cc1 [OSU03012] (first compound 0.4 µM, partner dose 1 µM) | 409 | 77.8 | 140 | 14400 | 91.4 | 38.6 | 136 | 123 | 131 | 84.9 | 224 | 126 | 110 | 123 | 115 | 62.6 | 108 | 204 | 55.5
C[C@]1(O)C[C@@H](c2nc(-c3ccc4ccc(-c5ccccc5)nc4c3)c3c(N)nccn32)C1 + CC1(C)NC(=O)N(c2ccc([N+](=O)[O-])c(C(F)(F)F)c2)C1=O [nilutamide] (first compound 0.4 µM, partner dose 1 µM) | 85.2 | 36.8 | 59.3 | 128 | 67.5 | 71.8 | 120 | 90.8 | 104 | 78.3 | 111 | 79.5 | 187 | 53.5 | 47.5 | 85.7 | 104 | 96.1 | 124
CCN(CC)CCNC(=O)c1c(C)[nH]c(/C=C2\C(=O)Nc3ccc(F)cc32)c1C [sunitinib] + Cc1ccc(NC(=O)c2cccc(N(C)C)c2)cc1NC(=O)c1ccc(O)cc1 [ZM336372] (first compound 0.4 µM, partner dose 2 µM) | 82.2 | 87.9 | 37.7 | 478 | 56.8 | 86 | 202 | 91 | 184 | 246 | 96.5 | 114 | 109 | 127 | 140 | 106 | 99 | 26.2 | 135
C[C@@H](N)c1ccc(C(=O)Nc2ccnc3[nH]ccc23)cc1 + C[C@@H]1CCN(C(=O)CC#N)C[C@@H]1N(C)c1ncnc2[nH]ccc12 [CP690550] (first compound 0.4 µM, partner dose 1 µM) | 153 | 166 | 98.2 | 138 | 82.3 | 60 | 124 | 82.8 | 116 | 167 | 333 | 37.7 | 128 | 59.7 | 42.9 | 44.2 | 74 | 43.1 | 119
COc1ccc(C2=N[C@@H](c3ccc(Cl)cc3)[C@@H](c3ccc(Cl)cc3)N2C(=O)N2CCNC(=O)C2)c(OC(C)C)c1 [Nutlin-3] + CN(NC(=O)CC(=O)NN(C)C(=S)c1ccccc1)C(=S)c1ccccc1 [STA4783] (first compound 0.1 µM, partner dose 0.006 µM) | 375 | 185 | 152 | 8950 | 115 | 1790 | 195 | 656 | 46.3 | 275 | 338 | 115 | 400 | 131 | 100 | 46.8 | 196 | 195 | 107
Cn1cnc2c(F)c(Nc3ccc(Br)cc3Cl)c(C(=O)NOCCO)cc21 [selumetinib] + CN(C)S(=O)(=O)c1ccc2c(c1)/C(=C/c1cc3c([nH]1)CCCC3)C(=O)N2 [SU6656] (first compound 0.015 µM, partner dose 0.4 µM) | 197 | 46.6 | 70 | 201 | 142 | 137 | 79.8 | 86.1 | 91.3 | 123 | 80 | 59.7 | 93.7 | 176 | 144 | 138 | 152 | 78 | 24.9
CCN(CC)CCNC(=O)c1c(C)[nH]c(/C=C2\C(=O)Nc3ccc(F)cc32)c1C [sunitinib] + COc1cc2c(Oc3ccc4[nH]c(C)cc4c3F)ncnc2cc1OCCCN1CCCC1 [cediranib] (first compound 0.4 µM, partner dose 0.4 µM) | 51.3 | 110 | 220 | 123 | 42.3 | 55.2 | 276 | 77 | 65.6 | 97.8 | 88.8 | 70.7 | 116 | 132 | 359 | 130 | 281 | 147 | 58
CC1(C)CCC(c2ccc(Cl)cc2)=C(CN2CCN(c3ccc(C(=O)NS(=O)(=O)c4ccc(N[C@H](CCN5CCOCC5)CSc5ccccc5)c(S(=O)(=O)C(F)(F)F)c4)cc3)CC2)C1 + Cc1ccc(NC(=O)c2cccc(N(C)C)c2)cc1NC(=O)c1ccc(O)cc1 [ZM336372] (first compound 0.4 µM, partner dose 2 µM) | 83.3 | 249 | 73.6 | 243 | 356 | 321 | 91.6 | 616 | 302 | 266 | 173 | 257 | 52.3 | 193 | 117 | 107 | 159 | 200 | 61.9
Cn1cnc2c(F)c(Nc3ccc(Br)cc3Cl)c(C(=O)NOCCO)cc21 [selumetinib] + CN(NC(=O)CC(=O)NN(C)C(=S)c1ccccc1)C(=S)c1ccccc1 [STA4783] (first compound 0.015 µM, partner dose 0.006 µM) | 1260 | 46.1 | 330 | 2520 | 216 | 3330 | 145 | 521 | 737 | 678 | 217 | 141 | 269 | 216 | 199 | 279 | 553 | 43 | 156
CCCCCCCCc1ccc(CCC(N)(CO)CO)cc1 [fingolimod] + Cc1cc(N2CCOCC2)cc2[nH]c(-c3c(NC[C@@H](O)c4cccc(Cl)c4)cc[nH]c3=O)nc12 [BMS536924] (first compound 2 µM, partner dose 0.2 µM) | 594 | 296 | 96.2 | 201 | 193 | 124 | 129 | 72.7 | 46.8 | 121 | 291 | 363 | 85.7 | 97.4 | 94.8 | 100 | 94.9 | 80.3 | 167
C[C@]1(O)C[C@@H](c2nc(-c3ccc4ccc(-c5ccccc5)nc4c3)c3c(N)nccn32)C1 + NCC(=O)Nc1ccc(-n2nc(C(F)(F)F)cc2-c2ccc3c(ccc4ccccc43)c2)cc1 [OSU03012] (first compound 0.4 µM, partner dose 1 µM) | 178 | 76.7 | 51.1 | 8980 | 95.2 | 167 | 184 | 115 | 31.5 | 83.3 | 274 | 111 | 273 | 117 | 216 | 51.4 | 49.5 | 77.3 | 70.4
CCN(CC)CCNC(=O)c1c(C)[nH]c(/C=C2\C(=O)Nc3ccc(F)cc32)c1C [sunitinib] + CC(C)(C)c1cnc(CSc2cnc(NC(=O)C3CCNCC3)s2)o1 [SNS-032] (first compound 0.4 µM, partner dose 0.01 µM) | 110 | 56.1 | 117 | 269 | 51.3 | 114 | 293 | 92.6 | 207 | 81.7 | 198 | 162 | 80.1 | 106 | 427 | 68.5 | 309 | 297 | 103
CS(=O)(=O)c1ccc(C(=O)Nc2ccc(Cl)c(-c3ccccn3)c2)c(Cl)c1 [vismodegib] + NCC(=O)Nc1ccc(-n2nc(C(F)(F)F)cc2-c2ccc3c(ccc4ccccc43)c2)cc1 [OSU03012] (first compound 1 µM, partner dose 1 µM) | 165 | 43.2 | 103 | 4700 | 37.5 | 75.6 | 221 | 187 | 33.1 | 118 | 62.6 | 91.9 | 139 | 127 | 418 | 357 | 40.2 | 150 | 191
CN(c1ncccc1CNc1nc(Nc2ccc3c(c2)CC(=O)N3)ncc1C(F)(F)F)S(C)(=O)=O + CN(NC(=O)CC(=O)NN(C)C(=S)c1ccccc1)C(=S)c1ccccc1 [STA4783] (first compound 0.08 µM, partner dose 0.006 µM) | 149 | 157 | 427 | 597 | 418 | 667 | 132 | 569 | 406 | 126 | 160 | 136 | 128 | 66.7 | 133 | 55.7 | 96.7 | 67.9 | 71.9
CN(c1ncccc1CNc1nc(Nc2ccc3c(c2)CC(=O)N3)ncc1C(F)(F)F)S(C)(=O)=O + C=CCn1c(=O)c2cnc(Nc3ccc(N4CCN(C)CC4)cc3)nc2n1-c1cccc(C(C)(C)O)n1 [MK1775] (first compound 0.08 µM, partner dose 0.02 µM) | 226 | 111 | 50.7 | 99.5 | 599 | 44 | 92.3 | 81.6 | 21.4 | 96.2 | 89 | 143 | 36 | 90.3 | 88.3 | 98.5 | 108 | 126 | 138
CCN(CC)CCNC(=O)c1c(C)[nH]c(/C=C2\C(=O)Nc3ccc(F)cc32)c1C [sunitinib] + O=C(O)c1ccc(-c2c[nH]c3ncc(-c4ccccc4)cc23)cc1C1CCCC1 [GSK650394] (first compound 0.4 µM, partner dose 0.16 µM) | 194 | 125 | 145 | 184 | 105 | 208 | 241 | 96.8 | 174 | 134 | 77.9 | 70.3 | 91.5 | 75.2 | 32.3 | 51.2 | 95.2 | 60.3 | 139

A second format for part of the listing above:
Structure (SMILES)	cleaved PARP positive nuclei fraction (501Mel) [%]	cleaved PARP positive nuclei fraction (A101D) [%]	cleaved PARP positive nuclei fraction (A2058) [%]	cleaved PARP positive nuclei fraction (A375) [%]	cleaved PARP positive nuclei fraction (C32) [%]	cleaved PARP positive nuclei fraction (CBRC008) [%]	cleaved PARP positive nuclei fraction (CBRC013) [%]	cleaved PARP positive nuclei fraction (CBRC014) [%]	cleaved PARP positive nuclei fraction (CBRC016) [%]	cleaved PARP positive nuclei fraction (CBRC017) [%]	cleaved PARP positive nuclei fraction (COLO792) [%]	cleaved PARP positive nuclei fraction (COLO800) [%]	cleaved PARP positive nuclei fraction (COLO829) [%]	cleaved PARP positive nuclei fraction (G361) [%]	cleaved PARP positive nuclei fraction (IPC-298) [%]	cleaved PARP positive nuclei fraction (IST-MEL1) [%]	cleaved PARP positive nuclei fraction (LB2518-MEL) [%]	cleaved PARP positive nuclei fraction (LOXIMVI) [%]	cleaved PARP positive nuclei fraction (MEL-HO) [%]
CN(c1ncccc1CNc1nc(Nc2ccc3c(c2)CC(=O)N3)ncc1C(F)(F)F)S(C)(=O)=O + O=C(O)c1ccc(-c2c[nH]c3ncc(-c4ccccc4)cc23)cc1C1CCCC1 [GSK650394] (first compound 0.08 µM, partner dose 0.16 µM)	41.8	227	133	69	262	325	149	28.8	106	105	179	48.8	96	142	21.9	216	49	220	146
C[C@@H](N)c1ccc(C(=O)Nc2ccnc3[nH]ccc23)cc1 + NCC(=O)Nc1ccc(-n2nc(C(F)(F)F)cc2-c2ccc3c(ccc4ccccc43)c2)cc1 [OSU03012] (first compound 0.4 µM, partner dose 1 µM)	409	77.8	140	14400	91.4	38.6	136	123	131	84.9	224	126	110	123	115	62.6	108	204	55.5
